This is one part of the list.
Assays:
Experiment in all cases: log2 fold change, soluble protein after heating vs DMSO (PISA); higher = thermal stabilisation; K562 cells, 10 uM, 30 min; active = over 0.2 and 3.5 SD of the protein, either way, in both replicates (recomputed)
[1] = compound: CC1=C(C=C(C=C1)NC(=O)C2=CC(=CC=C2)C(C)(C)C#N)NC3=CC4=C(C=C3)N=CN(C4=O)C
In short: (§1)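 Values are thermal stability changes relative to control samples and are taken from duplicates. They are stated as log2 fold changes. Before quantification by TMTpro 16plex LC-MS/MS with equalised channel sums, K562 cells at 2×10^6 cells/mL were treated with 10 μM compound for 30 min, heated in aliquots for 3 min across 48°C-58°C, pooled, extracted in PBS with 0.5% NP-40 at 4°C, and centrifuged at 21,000xg for 90 min to give the soluble supernatant.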

Sequences of proteins named here, by UniProt entry; tags and fusion partners are left off. A change or cut given only in a name is not applied to a line headed by its entry.
UniProt O75534: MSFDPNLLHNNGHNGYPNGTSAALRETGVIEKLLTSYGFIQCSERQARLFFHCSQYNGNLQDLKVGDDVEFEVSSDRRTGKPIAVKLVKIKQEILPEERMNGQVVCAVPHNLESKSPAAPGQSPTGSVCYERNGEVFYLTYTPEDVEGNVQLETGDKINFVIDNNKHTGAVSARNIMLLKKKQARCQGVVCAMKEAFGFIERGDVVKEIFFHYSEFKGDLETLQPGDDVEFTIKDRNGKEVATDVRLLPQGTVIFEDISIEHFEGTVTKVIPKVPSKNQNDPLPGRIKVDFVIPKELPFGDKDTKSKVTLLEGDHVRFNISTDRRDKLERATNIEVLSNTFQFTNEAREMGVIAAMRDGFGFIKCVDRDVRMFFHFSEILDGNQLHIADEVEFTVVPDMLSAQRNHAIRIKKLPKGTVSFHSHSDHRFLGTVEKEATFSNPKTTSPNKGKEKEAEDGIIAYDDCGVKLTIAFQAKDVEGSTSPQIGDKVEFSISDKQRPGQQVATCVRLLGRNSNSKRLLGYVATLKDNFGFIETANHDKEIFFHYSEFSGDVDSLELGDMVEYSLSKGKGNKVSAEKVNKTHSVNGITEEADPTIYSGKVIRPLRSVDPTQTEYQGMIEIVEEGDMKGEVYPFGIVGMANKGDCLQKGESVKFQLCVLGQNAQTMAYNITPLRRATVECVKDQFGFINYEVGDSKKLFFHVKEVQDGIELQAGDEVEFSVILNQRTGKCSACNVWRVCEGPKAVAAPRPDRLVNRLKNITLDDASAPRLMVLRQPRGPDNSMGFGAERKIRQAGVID
UniProt P16220: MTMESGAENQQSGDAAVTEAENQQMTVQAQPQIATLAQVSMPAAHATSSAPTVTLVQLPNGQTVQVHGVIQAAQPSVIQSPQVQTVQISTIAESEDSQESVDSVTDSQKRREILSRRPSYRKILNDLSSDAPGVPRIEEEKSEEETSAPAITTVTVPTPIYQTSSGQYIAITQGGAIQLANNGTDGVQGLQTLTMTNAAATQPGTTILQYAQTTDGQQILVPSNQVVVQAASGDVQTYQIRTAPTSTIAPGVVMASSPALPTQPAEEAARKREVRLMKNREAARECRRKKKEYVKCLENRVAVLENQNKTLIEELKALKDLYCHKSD
UniProt P31327: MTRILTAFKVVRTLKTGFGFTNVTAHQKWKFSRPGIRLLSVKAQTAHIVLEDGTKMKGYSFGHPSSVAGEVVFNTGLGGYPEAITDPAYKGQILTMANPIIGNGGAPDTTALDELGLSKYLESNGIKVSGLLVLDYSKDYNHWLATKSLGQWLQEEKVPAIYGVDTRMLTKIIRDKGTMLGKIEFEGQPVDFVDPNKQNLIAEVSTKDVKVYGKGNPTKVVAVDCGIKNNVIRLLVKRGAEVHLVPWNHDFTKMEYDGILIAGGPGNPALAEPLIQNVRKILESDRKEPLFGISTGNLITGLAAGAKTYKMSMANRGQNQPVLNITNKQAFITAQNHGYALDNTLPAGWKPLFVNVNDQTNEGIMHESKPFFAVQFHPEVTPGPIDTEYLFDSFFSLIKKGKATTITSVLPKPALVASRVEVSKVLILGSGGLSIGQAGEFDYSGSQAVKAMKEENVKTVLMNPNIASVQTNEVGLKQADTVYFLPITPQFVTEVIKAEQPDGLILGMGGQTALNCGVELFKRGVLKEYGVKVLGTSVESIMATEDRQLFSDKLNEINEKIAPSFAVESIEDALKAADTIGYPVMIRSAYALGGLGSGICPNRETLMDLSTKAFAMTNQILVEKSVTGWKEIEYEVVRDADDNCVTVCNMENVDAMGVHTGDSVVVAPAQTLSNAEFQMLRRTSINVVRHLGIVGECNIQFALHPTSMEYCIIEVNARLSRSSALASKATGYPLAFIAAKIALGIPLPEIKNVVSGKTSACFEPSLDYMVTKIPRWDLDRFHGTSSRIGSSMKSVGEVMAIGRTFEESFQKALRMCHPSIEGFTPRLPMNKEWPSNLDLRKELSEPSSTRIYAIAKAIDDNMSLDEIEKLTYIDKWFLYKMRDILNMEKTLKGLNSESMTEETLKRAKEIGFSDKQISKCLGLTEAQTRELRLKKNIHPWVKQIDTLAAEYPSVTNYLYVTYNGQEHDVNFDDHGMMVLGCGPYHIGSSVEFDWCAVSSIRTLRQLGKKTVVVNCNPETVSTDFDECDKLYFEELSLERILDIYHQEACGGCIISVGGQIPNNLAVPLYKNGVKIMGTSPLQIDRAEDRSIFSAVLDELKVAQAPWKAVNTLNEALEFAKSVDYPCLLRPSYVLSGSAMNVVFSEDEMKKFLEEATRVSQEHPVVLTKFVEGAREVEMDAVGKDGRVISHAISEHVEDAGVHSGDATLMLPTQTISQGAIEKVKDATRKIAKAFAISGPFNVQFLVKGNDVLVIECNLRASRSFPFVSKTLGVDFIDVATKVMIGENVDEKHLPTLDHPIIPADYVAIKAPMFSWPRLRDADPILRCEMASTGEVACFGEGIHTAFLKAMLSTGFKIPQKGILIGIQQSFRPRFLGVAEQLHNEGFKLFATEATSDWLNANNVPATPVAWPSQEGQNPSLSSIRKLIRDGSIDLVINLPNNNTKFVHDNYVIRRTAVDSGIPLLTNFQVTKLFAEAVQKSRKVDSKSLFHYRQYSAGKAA
UniProt O14548: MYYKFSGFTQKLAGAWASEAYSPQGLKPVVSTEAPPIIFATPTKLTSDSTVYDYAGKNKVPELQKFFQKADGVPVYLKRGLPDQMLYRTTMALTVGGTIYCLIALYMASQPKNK
UniProt Q8IYK4: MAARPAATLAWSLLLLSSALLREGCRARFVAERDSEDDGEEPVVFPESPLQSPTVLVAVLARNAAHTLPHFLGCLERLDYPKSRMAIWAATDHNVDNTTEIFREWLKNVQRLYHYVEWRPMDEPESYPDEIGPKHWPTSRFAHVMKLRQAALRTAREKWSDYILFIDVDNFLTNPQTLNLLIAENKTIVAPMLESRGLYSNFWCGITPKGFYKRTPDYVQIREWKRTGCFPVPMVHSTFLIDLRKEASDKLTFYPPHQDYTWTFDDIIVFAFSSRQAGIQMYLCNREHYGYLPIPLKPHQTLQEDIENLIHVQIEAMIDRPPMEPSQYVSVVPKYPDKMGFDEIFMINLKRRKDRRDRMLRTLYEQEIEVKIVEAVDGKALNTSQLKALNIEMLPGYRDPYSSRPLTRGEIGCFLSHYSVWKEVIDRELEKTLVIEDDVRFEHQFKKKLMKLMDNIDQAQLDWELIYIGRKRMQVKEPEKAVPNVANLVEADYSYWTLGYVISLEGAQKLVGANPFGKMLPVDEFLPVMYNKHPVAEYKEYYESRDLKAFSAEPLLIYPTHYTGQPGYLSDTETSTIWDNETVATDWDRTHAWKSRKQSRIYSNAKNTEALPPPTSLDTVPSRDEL
UniProt Q8N8Q8: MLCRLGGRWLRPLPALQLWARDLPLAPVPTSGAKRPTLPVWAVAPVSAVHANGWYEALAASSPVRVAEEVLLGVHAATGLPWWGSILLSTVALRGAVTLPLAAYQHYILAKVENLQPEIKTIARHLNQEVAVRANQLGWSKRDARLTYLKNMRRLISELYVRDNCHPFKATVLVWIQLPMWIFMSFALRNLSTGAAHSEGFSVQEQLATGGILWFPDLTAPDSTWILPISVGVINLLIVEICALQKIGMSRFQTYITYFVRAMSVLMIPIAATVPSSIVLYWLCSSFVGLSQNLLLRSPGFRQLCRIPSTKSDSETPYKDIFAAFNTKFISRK
UniProt P57737: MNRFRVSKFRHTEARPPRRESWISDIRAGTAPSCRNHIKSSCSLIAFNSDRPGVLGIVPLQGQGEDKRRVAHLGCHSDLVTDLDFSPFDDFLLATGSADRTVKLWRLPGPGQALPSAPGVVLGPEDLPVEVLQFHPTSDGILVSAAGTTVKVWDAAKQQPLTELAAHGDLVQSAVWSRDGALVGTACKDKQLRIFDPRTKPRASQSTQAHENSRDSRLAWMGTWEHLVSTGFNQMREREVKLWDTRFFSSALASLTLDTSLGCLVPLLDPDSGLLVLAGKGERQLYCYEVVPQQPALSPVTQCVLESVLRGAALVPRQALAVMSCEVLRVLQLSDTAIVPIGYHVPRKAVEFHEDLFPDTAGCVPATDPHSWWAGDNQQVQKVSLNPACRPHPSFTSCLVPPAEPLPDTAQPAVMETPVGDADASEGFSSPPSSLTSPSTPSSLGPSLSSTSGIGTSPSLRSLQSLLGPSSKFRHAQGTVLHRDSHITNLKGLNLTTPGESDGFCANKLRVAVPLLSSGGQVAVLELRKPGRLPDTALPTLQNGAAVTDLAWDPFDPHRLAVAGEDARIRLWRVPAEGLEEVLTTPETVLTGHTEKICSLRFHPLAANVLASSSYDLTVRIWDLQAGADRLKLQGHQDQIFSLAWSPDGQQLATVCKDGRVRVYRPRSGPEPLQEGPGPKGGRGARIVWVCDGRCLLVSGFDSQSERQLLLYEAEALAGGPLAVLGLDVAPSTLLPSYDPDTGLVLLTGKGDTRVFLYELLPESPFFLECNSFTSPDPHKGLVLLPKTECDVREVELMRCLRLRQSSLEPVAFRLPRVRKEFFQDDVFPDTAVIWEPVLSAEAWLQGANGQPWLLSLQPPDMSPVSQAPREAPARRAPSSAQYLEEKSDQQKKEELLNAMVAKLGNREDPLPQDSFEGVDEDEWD
UniProt Q9Y678: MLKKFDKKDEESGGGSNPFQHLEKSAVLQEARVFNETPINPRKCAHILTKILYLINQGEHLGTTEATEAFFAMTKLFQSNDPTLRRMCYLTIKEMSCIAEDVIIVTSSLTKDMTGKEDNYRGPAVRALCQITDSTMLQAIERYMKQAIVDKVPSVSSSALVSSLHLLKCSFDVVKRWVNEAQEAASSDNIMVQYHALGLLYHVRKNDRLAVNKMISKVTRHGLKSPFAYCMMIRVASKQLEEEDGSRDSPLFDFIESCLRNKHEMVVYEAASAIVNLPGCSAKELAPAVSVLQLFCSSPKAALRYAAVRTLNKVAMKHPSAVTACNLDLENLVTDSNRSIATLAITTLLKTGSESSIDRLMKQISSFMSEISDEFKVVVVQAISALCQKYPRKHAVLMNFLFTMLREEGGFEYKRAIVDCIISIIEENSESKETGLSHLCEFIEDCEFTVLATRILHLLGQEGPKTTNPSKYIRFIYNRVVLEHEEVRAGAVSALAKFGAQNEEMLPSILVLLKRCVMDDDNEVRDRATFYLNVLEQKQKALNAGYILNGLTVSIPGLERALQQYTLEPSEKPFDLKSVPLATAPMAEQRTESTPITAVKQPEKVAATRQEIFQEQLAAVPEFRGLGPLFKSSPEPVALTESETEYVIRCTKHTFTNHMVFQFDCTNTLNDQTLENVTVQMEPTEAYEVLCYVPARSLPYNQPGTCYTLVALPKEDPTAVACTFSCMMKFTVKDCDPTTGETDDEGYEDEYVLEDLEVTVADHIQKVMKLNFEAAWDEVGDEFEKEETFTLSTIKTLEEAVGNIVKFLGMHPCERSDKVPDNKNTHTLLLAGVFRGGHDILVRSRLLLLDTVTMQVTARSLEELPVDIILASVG
UniProt P13073, whole entry, looked up: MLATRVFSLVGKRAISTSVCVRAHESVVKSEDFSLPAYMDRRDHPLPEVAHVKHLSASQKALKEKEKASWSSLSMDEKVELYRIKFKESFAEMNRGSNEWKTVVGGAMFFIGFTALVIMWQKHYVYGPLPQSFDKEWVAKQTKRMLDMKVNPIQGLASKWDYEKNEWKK
UniProt Q9GZQ3, whole entry, looked up: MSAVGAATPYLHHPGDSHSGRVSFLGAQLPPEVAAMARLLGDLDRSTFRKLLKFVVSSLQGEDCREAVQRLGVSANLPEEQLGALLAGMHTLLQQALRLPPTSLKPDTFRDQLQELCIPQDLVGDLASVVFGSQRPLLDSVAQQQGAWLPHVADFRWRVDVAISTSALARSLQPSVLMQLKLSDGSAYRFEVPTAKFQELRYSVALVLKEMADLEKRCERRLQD
UniProt Q8NI60: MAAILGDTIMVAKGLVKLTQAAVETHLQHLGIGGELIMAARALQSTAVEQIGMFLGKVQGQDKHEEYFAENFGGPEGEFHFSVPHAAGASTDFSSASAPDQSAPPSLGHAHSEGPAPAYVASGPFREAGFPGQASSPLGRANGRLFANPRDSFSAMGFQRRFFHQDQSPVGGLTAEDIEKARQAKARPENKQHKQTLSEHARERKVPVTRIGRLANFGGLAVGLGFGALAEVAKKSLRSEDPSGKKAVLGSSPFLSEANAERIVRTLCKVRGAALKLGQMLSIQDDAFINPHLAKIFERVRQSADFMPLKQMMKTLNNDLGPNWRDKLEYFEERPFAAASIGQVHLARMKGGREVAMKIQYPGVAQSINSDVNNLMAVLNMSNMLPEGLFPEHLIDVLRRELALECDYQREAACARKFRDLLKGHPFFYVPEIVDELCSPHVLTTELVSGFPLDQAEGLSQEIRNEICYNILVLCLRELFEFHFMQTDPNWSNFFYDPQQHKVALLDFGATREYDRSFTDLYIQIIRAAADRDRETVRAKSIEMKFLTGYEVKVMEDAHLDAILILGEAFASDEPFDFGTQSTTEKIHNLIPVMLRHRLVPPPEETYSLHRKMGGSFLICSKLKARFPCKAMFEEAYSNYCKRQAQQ

[2] = compound: CC1=C(C=C(C=C1)NC(=O)C2=CC(=CC=C2)N(C)C)NC(=O)C3=CC=C(C=C3)O
In short: as §1

[3] = compound: CC1=CC=C(C=C1)SC2=C3C=C(SC3=CN=C2)C(=O)N
In short: as §1

[4] = compound: CC1=NC(=CC=C1)C2=C(N=C(N2)C(C)(C)C)C3=CC4=NC=CN=C4C=C3
In short: as §1

Nexturastat A = compound: CCCCN(Cc1ccc(C(=O)NO)cc1)C(=O)Nc1ccccc1 [Nexturastat A]
In short: as §1

vemurafenib = compound: CCCS(=O)(=O)Nc1ccc(F)c(C(=O)c2c[nH]c3ncc(-c4ccc(Cl)cc4)cc23)c1F [vemurafenib]
In short: as §1

[5] = compound: CCCS(=O)(=O)Nc1ccc(F)c(C(=O)c2c[nH]c3ncc(Cl)cc23)c1F
In short: as §1

[6] = compound: CCCc1cc(C)[nH]c(=O)c1CNC(=O)c1cc(-c2ccnc(N3CCN(C)CC3)c2)cc2c1cnn2C(C)C
In short: as §1

givinostat = compound: CCN(CC)Cc1ccc2cc(COC(=O)Nc3ccc(C(=O)NO)cc3)ccc2c1 [givinostat]
In short: as §1

barasertib = compound: CCN(CCCOc1ccc2c(Nc3cc(CC(=O)Nc4cccc(F)c4)[nH]n3)ncnc2c1)CCOP(=O)(O)O [barasertib]
In short: as §1

[7] = compound: CC[C@@H]1C(=O)N(C)c2cnc(Nc3ccc(C(=O)NC4CCN(C)CC4)cc3OC)nc2N1C1CCCC1
In short: as §1

volasertib = compound: CC[C@@H]1C(=O)N(C)c2cnc(Nc3ccc(C(=O)N[C@H]4CC[C@H](N5CCN(CC6CC6)CC5)CC4)cc3OC)nc2N1C(C)C [volasertib]
In short: as §1

[8] = compound: CC[C@H](C)N1C=C(C2=C(C=C(C=C21)C3=CN=C(C=C3)N4CCNCC4)C(=O)NCC5=C(C=C(NC5=O)C)C)C
In short: as §1

epoxomicin = compound: CC[C@H](C)[C@@H](C(=O)N[C@@H]([C@@H](C)O)C(=O)N[C@@H](CC(C)C)C(=O)[C@]1(CO1)C)NC(=O)[C@H]([C@@H](C)CC)N(C)C(=O)C [epoxomicin]
In short: as §1

[9] = compound: CCn1c(C(=O)N(C2CC2)C2CC2)cc2c3c(ncn3C)c(Nc3cc(C)n(C)n3)nc21
In short: as §1

[10] = compound: CCn1cc(-c2ccnc3[nH]c(-c4cccc(CN(C)C)c4)cc23)c(-c2ccc(NC(=O)N(C)C)cc2)n1
In short: as §1

[11] = compound: CN(C)CC(=O)Nc1ccc2[nH]c(=O)c3ccccc3c2c1
In short: as §1

rosiglitazone = compound: CN(CCOC1=CC=C(C=C1)C[C@H]2C(=O)NC(=O)S2)C3=CC=CC=N3 (racemic) [rosiglitazone]
In short: as §1

[12] = compound: CN1C2=C(C3=C1C(=O)N(N=C3)CC4=CC(=CC=C4)N)SC(=C2)S(=O)C
In short: as §1

[13] = compound: CN1CCC(CNc2ccc3ncc(-c4cccc(OC(F)(F)F)c4)n3n2)CC1
In short: as §1

Measured: log2 fold change

CSDE1 isoform 4 (UniProt O75534)
inactive: [1] -0.022 | [2] -0.025 | [3] 0.019 | [4] -0.054 | Nexturastat A 0.202 | vemurafenib 0.043 | [5] 0.058 | [6] 0.155 | givinostat 0.123 | barasertib 0.066 | [7] 0.07 | volasertib -0.321 | [8] 0.115 | epoxomicin -0.172 | [9] -0.064 | [10] 0.122 | [11] 0.011 | rosiglitazone 0.017 | [12] 0.275 | [13] -0.055

CREB1 (UniProt P16220)
inactive: [1] -0.023 | [2] -0.003 | [3] -0.044 | [4] 0.018 | Nexturastat A -0.211 | vemurafenib 0.022 | [5] -0.055 | [6] -0.045 | givinostat -0.155 | barasertib 0.005 | [7] 0.008 | volasertib 0.069 | [8] -0.015 | epoxomicin -0.016 | [9] 0.033 | [10] -0.015 | [11] -0.086 | rosiglitazone -0.009 | [12] -0.089 | [13] -0.04

COPS2 (UniProt P61201)
inactive: [1] 0.009 | [2] 0 | [3] 0.017 | [4] 0.03 | Nexturastat A -0.063 | vemurafenib 0.039 | [5] 0.03 | [6] 0.015 | givinostat -0.034 | barasertib -0.017 | [7] -0.009 | volasertib -0.084 | [8] 0.028 | epoxomicin 0.033 | [9] 0.028 | [10] -0.019 | [11] 0.002 | rosiglitazone 0.025 | [12] -0.093 | [13] -0.057

COPS7A (UniProt Q9UBW8)
inactive: [1] 0.021 | [2] 0.062 | [3] 0.034 | [4] -0.011 | Nexturastat A 0.042 | vemurafenib 0 | [5] -0.009 | [6] -0.066 | givinostat 0.033 | barasertib 0.014 | [7] 0.008 | volasertib 0.024 | [8] 0.011 | epoxomicin 0.001 | [9] -0.01 | [10] -0.091 | [11] -0.011 | rosiglitazone 0 | [12] -0.054 | [13] 0.011

CPS1 isoform 3 (UniProt P31327)
inactive: [1] -0.096 | [2] -0.022 | [3] 0.126 | [4] 0.192 | Nexturastat A -0.012 | vemurafenib 0.247 | [5] 0 | [6] -0.097 | givinostat 0.076 | barasertib 0.051 | [7] 0.13 | volasertib 0.067 | [8] -0.001 | epoxomicin 0.011 | [9] -0.051 | [10] 0.011 | [11] -0.066 | rosiglitazone 0.069 | [12] -0.014 | [13] -0.043

COX7A2L (UniProt O14548)
inactive: [1] -0.035 | [2] -0.049 | [3] 0.024 | [4] 0.005 | Nexturastat A 0.009 | vemurafenib -0.078 | [5] -0.044 | [6] -0.041 | givinostat -0.018 | barasertib 0.042 | [7] -0.036 | volasertib 0.04 | [8] -0.032 | epoxomicin 0.144 | [9] 0.048 | [10] -0.029 | [11] -0.025 | rosiglitazone 0.002 | [12] 0.056 | [13] 0.022

COLGALT2 (UniProt Q8IYK4)
inactive: [1] 0.019 | [2] -0.003 | [3] -0.031 | [4] -0.096 | Nexturastat A 0.1 | vemurafenib -0.036 | [5] -0.072 | [6] 0.052 | givinostat -0.029 | barasertib -0.003 | [7] 0.072 | volasertib 0.013 | [8] -0.009 | epoxomicin -0.019 | [9] 0.049 | [10] 0.108 | [11] -0.084 | rosiglitazone -0.017 | [12] 0.043 | [13] 0.163

COX18 (UniProt Q8N8Q8)
inactive: [1] 0 | [2] -0.019 | [3] 0.103 | [4] -0.022 | Nexturastat A 0.047 | vemurafenib 0.069 | [5] -0.046 | [6] -0.004 | givinostat 0.029 | barasertib 0.032 | [7] -0.002 | volasertib 0.157 | [8] -0.032 | epoxomicin -0.077 | [9] 0.035 | [10] -0.002 | [11] 0.024 | rosiglitazone -0.038 | [12] 0.006 | [13] -0.126

CORO7 isoform 3 (UniProt P57737)
inactive: [1] 0.149 | [2] -0.003 | [3] 0.029 | [4] 0.054 | Nexturastat A -0.066 | vemurafenib 0.011 | [5] 0.002 | [6] -0.039 | givinostat -0.011 | barasertib 0.031 | [7] -0.026 | volasertib -0.016 | [8] -0.05 | epoxomicin 0.031 | [9] 0.054 | [10] 0.082 | [11] 0.016 | rosiglitazone 0.021 | [12] 0.002 | [13] -0.246

CRYZL1 (UniProt O95825)
inactive: [1] 0.024 | [2] 0.029 | [3] -0.041 | [4] 0.016 | Nexturastat A -0.066 | vemurafenib -0.024 | [5] -0.002 | [6] -0.022 | givinostat -0.003 | barasertib -0.004 | [7] 0.021 | volasertib 0.046 | [8] -0.032 | epoxomicin 0.025 | [9] 0.013 | [10] -0.01 | [11] -0.028 | rosiglitazone 0 | [12] -0.04 | [13] -0.035

COPG1 (UniProt Q9Y678)
inactive: [1] 0.014 | [2] -0.016 | [3] 0.02 | [4] 0.028 | Nexturastat A -0.057 | vemurafenib 0.01 | [5] 0.002 | [6] 0.001 | givinostat -0.013 | barasertib 0.043 | [7] -0.019 | volasertib -0.112 | [8] 0.021 | epoxomicin 0 | [9] -0.031 | [10] -0.029 | [11] 0.002 | rosiglitazone 0.009 | [12] -0.016 | [13] -0.004

COX6C (UniProt P09669)
inactive: [1] 0.008 | [2] -0.017 | [3] 0.012 | [4] 0.015 | Nexturastat A -0.095 | vemurafenib 0.003 | [5] -0.025 | [6] -0.04 | givinostat -0.005 | barasertib -0.001 | [7] -0.138 | volasertib 0.031 | [8] -0.035 | epoxomicin -0.034 | [9] 0.022 | [10] 0.002 | [11] -0.006 | rosiglitazone 0.016 | [12] -0.029 | [13] -0.011

COX4I1 (UniProt P13073)
inactive: [1] 0.043 | [2] 0.004 | [3] -0.009 | [4] -0.012 | Nexturastat A -0.012 | vemurafenib 0.023 | [5] -0.033 | [6] -0.062 | givinostat 0 | barasertib -0.018 | [7] 0.015 | volasertib 0.042 | [8] -0.046 | epoxomicin -0.029 | [9] 0.042 | [10] -0.003 | [11] -0.007 | rosiglitazone 0.004 | [12] -0.04 | [13] 0.073

COMMD5 (UniProt Q9GZQ3)
inactive: [1] 0.04 | [2] -0.07 | [3] 0.014 | [4] 0.043 | Nexturastat A -0.148 | vemurafenib 0.044 | [5] -0.004 | [6] -0.007 | givinostat -0.036 | barasertib 0.021 | [7] -0.046 | volasertib 0.049 | [8] -0.006 | epoxomicin 0.007 | [9] 0.061 | [10] -0.003 | [11] 0.084 | rosiglitazone 0.051 | [12] 0.046 | [13] 0.017

Two entries picked at random from the list so far:
COX6C (UniProt P09669)
inactive: [1] 0.008 | [2] -0.017 | [3] 0.012 | [4] 0.015 | Nexturastat A -0.095 | vemurafenib 0.003 | [5] -0.025 | [6] -0.04 | givinostat -0.005 | barasertib -0.001 | [7] -0.138 | volasertib 0.031 | [8] -0.035 | epoxomicin -0.034 | [9] 0.022 | [10] 0.002 | [11] -0.006 | rosiglitazone 0.016 | [12] -0.029 | [13] -0.011

CRYZL1 (UniProt O95825)
inactive: [1] 0.024 | [2] 0.029 | [3] -0.041 | [4] 0.016 | Nexturastat A -0.066 | vemurafenib -0.024 | [5] -0.002 | [6] -0.022 | givinostat -0.003 | barasertib -0.004 | [7] 0.021 | volasertib 0.046 | [8] -0.032 | epoxomicin 0.025 | [9] 0.013 | [10] -0.01 | [11] -0.028 | rosiglitazone 0 | [12] -0.04 | [13] -0.035

Continued:

COQ8A (UniProt Q8NI60)
inactive: [1] 0.044 | [2] -0.053 | [3] 0.001 | [4] 0.034 | Nexturastat A -0.024 | vemurafenib 0.028 | [5] 0.047 | [6] -0.085 | givinostat -0.049 | barasertib 0.02 | [7] -0.063 | volasertib -0.186 | [8] -0.023 | epoxomicin 0.038 | [9] 0.166 | [10] -0.074 | [11] 0.009 | rosiglitazone 0.009 | [12] -0.179 | [13] -0.049

COPRS (UniProt Q9NQ92)
inactive: [1] -0.028 | [2] 0.045 | [3] -0.02 | [4] -0.078 | Nexturastat A 0.09 | vemurafenib 0.039 | [5] -0.152 | [6] -0.05 | givinostat 0.015 | barasertib 0.08 | [7] 0.019 | volasertib 0.041 | [8] 0.004 | epoxomicin -0.047 | [9] 0.011 | [10] 0.027 | [11] 0.022 | rosiglitazone -0.012 | [12] 0.031 | [13] 0.044
